The list shows only some results of the screen, not a fair sample: it is rich in T/C values a quarter to a half above the control, in often repeated tests (any T/C) and in doses without a T/C. Further doses and runs are listed elsewhere. T/C gives the treated animals as a percentage of the vehicle group. Some doses have a count of surviving animals in place of a T/C: the source files T/C as zero there, which appears to mark a toxic dose or a test without result, not a measured value. Some doses without a T/C left all or most animals alive at the check, yet need not have been tolerated: survival well below the control is almost never listed, so the zero probably covers shortened survival too. Counts of survivors are from the toxicity check (mostly the fifth day) where no day follows; animals may have died later. Schedule codes are those of the source, taken here to give the interval after Q, in days (D) or hours (H), and the number of doses after X. Some entries hold several experiments; their values stand side by side, smallest first. Where survival is the endpoint, this PubChem deposit counts one and a half times the control or more as active, and values a quarter to a half above the control carry no call in these data; other NCI protocols may use other cut-offs. Some T/C values carry the count of animals alive at the toxicity check (mostly the fifth day); without a count, all were alive then.
System: P388 leukemia ip, CD2F1 mice, survival T/C
Experiment: NCI In Vivo Anticancer Drug Screen. Data for tumor model P388 Leukemia (intraperitoneal) in CD2F1 (CDF1) mice
Conditions: T/C endpoint: median survival time, higher T/C = longer survival
[1] = dose: 120.0 mg/kg/injection, schedule: Q01DX005 (ip), vehicle: saline with Tween-80
[2] = dose: 240.0 mg/kg/injection, schedule: Q01DX005 (ip), vehicle: saline with Tween-80
[3] = dose: 70.0 mg/kg/injection, schedule: Q01DX009 (ip), vehicle: Klucel (hydroxypropylcellulose) (HPC)
[4] = dose: 50.0 mg/kg/injection, schedule: Q01DX009 (ip), vehicle: saline with Tween-80
[5] = dose: 200.0 mg/kg/injection, schedule: Q01DX005 (ip), vehicle: saline
[6] = dose: 200.0 mg/kg/injection, schedule: Q04DX003 (ip), vehicle: saline with Tween-80
[7] = dose: 400.0 mg/kg/injection, schedule: Q04DX003 (ip), vehicle: saline with Tween-80
[8] = dose: 200.0 mg/kg/injection, schedule: Q01DX009 (ip), vehicle: saline
[9] = dose: 50.0 mg/kg/injection, schedule: Q01DX005 (ip), vehicle: saline with Tween-80
[10] = dose: 100.0 mg/kg/injection, schedule: Q01DX005 (ip), vehicle: saline with Tween-80
[11] = dose: 200.0 mg/kg/injection, schedule: Q01DX005 (ip), vehicle: saline with Tween-80
[12] = dose: 100.0 mg/kg/injection, schedule: Q01DX005 (ip), vehicle: Klucel (hydroxypropylcellulose) (HPC)
[13] = dose: 200.0 mg/kg/injection, schedule: Q01DX005 (ip), vehicle: Klucel (hydroxypropylcellulose) (HPC)
[14] = dose: 50.0 mg/kg/injection, schedule: Q01DX005 (ip), vehicle: Klucel (hydroxypropylcellulose) (HPC)

Which survivor count (dose: 60.0 mg/kg/injection, schedule: Q01DX005 (ip), vehicle: saline with Tween-80) does the source give for `O=C(Nc1ccc(Cl)cc1)Nc1nnc(-c2ccc(F)cc2)o1` here?
Its survivor count is 6 of 6.

What about the survivor count [1] of the same molecule?
Its survivor count is 6 of 6.

What about the survivor count [2] of the same molecule?
Its survivor count is 6 of 6.

`COC1=C(Br)[C@H](O)[C@](O)(CC#N)C=C1Br` was tested. Which T/C (dose: 17.5 mg/kg/injection, schedule: Q01DX009 (ip), vehicle: Klucel (hydroxypropylcellulose) (HPC)) did it give?
Its T/C is 127 and 128 % of control.

And the T/C (dose: 35.0 mg/kg/injection, schedule: Q01DX009 (ip), vehicle: Klucel (hydroxypropylcellulose) (HPC))?
Its T/C is 127 and 144 % of control.

What about the T/C [3] of the same molecule?
Its T/C is 135 % of control [5 of 6 alive].

And the survivor count [3]?
The survivor count was 5 of 6.

And the survivor count (dose: 140.0 mg/kg/injection, schedule: Q01DX009 (ip), vehicle: Klucel (hydroxypropylcellulose) (HPC))?
Its survivor count is 2 of 6.

How did the T/C (dose: 25.0 mg/kg/injection, schedule: Q01DX009 (ip), vehicle: saline with Tween-80) turn out when `Nc1nc(=S)c2n[nH]nc2[nH]1` was run?
The T/C was 145 % of control.

What about the survivor count [4] of the same molecule?
The survivor count was 2 of 6.

And the survivor count (dose: 100.0 mg/kg/injection, schedule: Q01DX009 (ip), vehicle: saline with Tween-80)?
Its survivor count is 5 of 6.

How did the T/C [5] turn out when `c1ccc(CN2COC3CCCCC32)cc1` (centres undefined) was run?
Its T/C is 148 % of control.

Which survivor count (dose: 40.0 mg/kg/injection, schedule: Q04DX003 (ip), vehicle: other) does the source give for `Cc1ccc2c(C)c3c(ccc4ccccc43)c[n+]2c1` here?
The survivor count was 0 of 6.

`O=[n+]1ccn([O-])c2ccccc21.[O-][Cl+3]([O-])([O-])O.[Zn+2]` was tested. Which survivor count [6] did it give?
The survivor count was 0 of 6.

And the survivor count [7]?
Its survivor count is 0 of 6.

Which T/C [8] does the source give for `COc1ccc(CSC(=S)Nc2ccc(Cl)c(C(F)(F)F)c2)cc1` here?
Its T/C is 125 % of control.

Which results are given for `O=C(O)CC1OCC=C2C[N+]3([O-])CCC45c6ccccc6NC4C1C2CC53` (centres undefined)?
survivor count [1]: 0 of 6; survivor count [2]: 0 of 6

`CNC(=O)OCc1c(COC(=O)NC)c(-c2ccc(Cl)cc2)n(C)c1C` was tested. Which T/C (dose: 6.25 mg/kg/injection, schedule: Q01DX009 (ip), vehicle: distilled water + Tween-80) did it give?
Its T/C is 142 % of control.

What about the survivor count (dose: 50.0 mg/kg/injection, schedule: Q01DX009 (ip), vehicle: distilled water + Tween-80) of the same molecule?
The survivor count was 5 of 6 and 6 of 6.

What about the survivor count (dose: 100.0 mg/kg/injection, schedule: Q01DX009 (ip), vehicle: distilled water + Tween-80) of the same molecule?
Its survivor count is 0 of 6 and 2 of 6.

With `CN(C)B(N(C)C)N(C)C` as the molecule, how does the survivor count [2] read?
Its survivor count is 0 of 6.

For `S=C(Nc1ccccc1)Nc1ncccn1`, which survivor count (dose: 200.0 mg/kg/injection, schedule: Q01DX009 (ip), vehicle: Klucel (hydroxypropylcellulose) (HPC)) is on record?
Its survivor count is 6 of 6.

Which results are given for `CN(C)c1ccc(C(=NNC(N)=S)c2ccc(N(C)C)cc2)cc1`?
survivor count (dose: 100.0 mg/kg/injection, schedule: Q04DX003 (ip), vehicle: Klucel (hydroxypropylcellulose) (HPC)): 0 of 6; survivor count (dose: 200.0 mg/kg/injection, schedule: Q04DX003 (ip), vehicle: Klucel (hydroxypropylcellulose) (HPC)): 0 of 6; survivor count (dose: 400.0 mg/kg/injection, schedule: Q04DX003 (ip), vehicle: Klucel (hydroxypropylcellulose) (HPC)): 0 of 6

With `COC(=O)C1(O)C(=O)NC2=C1C(=O)c1ccccc1C2=O` (centres undefined) as the molecule, how does the T/C [9] read?
The T/C was 138 % of control.

And the survivor count [9]?
Its survivor count is 3 of 6.

And the survivor count [10]?
Its survivor count is 0 of 6, 1 of 6, 2 of 6.

What about the survivor count [11] of the same molecule?
Its survivor count is 0 of 6.

`O=S(=O)(O)C1=CC(=N/Br)/C=CC/1=N\Br` was tested. Which T/C (dose: 50.0 mg/kg/injection, schedule: Q01DX005 (ip), vehicle: saline) did it give?
Its T/C is 127 % of control.

What about the T/C (dose: 100.0 mg/kg/injection, schedule: Q01DX005 (ip), vehicle: saline) of the same molecule?
Its T/C is 129 % of control.

And the T/C [5]?
The T/C was 127 % of control.

And the survivor count (dose: 400.0 mg/kg/injection, schedule: Q01DX005 (ip), vehicle: saline)?
Its survivor count is 0 of 5 and 4 of 6.

Which T/C [4] does the source give for `COC(=O)CCc1ccc(NP(=O)(N2CC2)N2CC2)cc1` here?
The T/C was 130 % of control.

What about the T/C (dose: 50.0 mg/kg/injection, schedule: Q04DX003 (ip), vehicle: saline with Tween-80) of the same molecule?
The T/C was 140 % of control.

What about the T/C (dose: 100.0 mg/kg/injection, schedule: Q04DX003 (ip), vehicle: saline with Tween-80) of the same molecule?
The T/C was 143 % of control.

And the T/C [6]?
Its T/C is 145 % of control.

And the survivor count [7]?
Its survivor count is 6 of 6.

What does the source list for `Cn1c2ncccc2c(=O)c2c(O)cc3c(c21)C=CC(C)(C)O3`?
survivor count [12]: 2 of 6; survivor count [13]: 0 of 6

What does the source list for `CCCCCCCCCCCCCCCC[N+]1([O-])CCCCC1`?
survivor count (dose: 100.0 mg/kg/injection, schedule: Q01DX009 (ip), vehicle: saline): 4 of 6; survivor count [8]: 0 of 6

`O=[N+]([O-])c1ccc(/C=N/O)s1` was tested. Which survivor count (dose: 100.0 mg/kg/injection, schedule: Q01DX009 (ip), vehicle: Klucel (hydroxypropylcellulose) (HPC)) did it give?
The survivor count was 0 of 6.

What does the source list for `[CH3][Ga]([CH3])[n]1cccn1`?
survivor count (dose: 12.5 mg/kg/injection, schedule: Q01DX005 (ip), vehicle: Klucel (hydroxypropylcellulose) (HPC)): 0 of 6; survivor count [14]: 0 of 6; survivor count [12]: 0 of 6; survivor count [13]: 0 of 6

`CCN(CC)CCOc1ccc(C)c(C)c1` was tested. Which survivor count [11] did it give?
The survivor count was 0 of 6.

`[N-]=[N+]=CC(=O)CCC(NC(=O)OCc1ccccc1)C(=O)OCc1ccccc1` (centres undefined) was tested. Which survivor count (dose: 25.0 mg/kg/injection, schedule: Q01DX005 (ip), vehicle: Klucel (hydroxypropylcellulose) (HPC)) did it give?
Its survivor count is 7 of 10.

What about the T/C [14] of the same molecule?
Its T/C is 112, 147, 151 % of control.

What about the survivor count [14] of the same molecule?
Its survivor count is 9 of 10.

And the T/C [12]?
The T/C was 136, 143, 156, 168 % of control.

What about the survivor count [12] of the same molecule?
Its survivor count is 1 of 10.

What about the T/C (dose: 167.0 mg/kg/injection, schedule: Q01DX005 (ip), vehicle: Klucel (hydroxypropylcellulose) (HPC)) of the same molecule?
The T/C was 145 % of control.

And the T/C [13]?
Its T/C is 121 % of control.

What about the survivor count [13] of the same molecule?
Its survivor count is 0 of 10, 5 of 6, 6 of 6.

`COc1cccc2c1C(=O)c1c(O)c3c(c(O)c1C2=O)CC(O)(C(=O)CO)CC3OC1CC2C(OC3COCC(C#N)N32)C(C)O1` (centres undefined) was tested. Which T/C (dose: 1.0 mg/kg/injection, schedule: Q04DX003 (ip), vehicle: saline with Tween-80) did it give?
The T/C was 126 % of control.

What about the T/C (dose: 2.0 mg/kg/injection, schedule: Q04DX003 (ip), vehicle: saline with Tween-80) of the same molecule?
Its T/C is 134 and 136 % of control.

What about the T/C (dose: 4.0 mg/kg/injection, schedule: Q04DX003 (ip), vehicle: saline with Tween-80) of the same molecule?
The T/C was 127 % of control.

For `CSc1nc2c(Cl)ncnc2s1`, which survivor count [2] is on record?
Its survivor count is 3 of 6.

Which results are given for `COc1cc2nc3cc([N+](=O)[O-])ccc3c(NCCNCC(C)(C)O)c2cc1OC`?
survivor count [9]: 4 of 6, 4 of 5, 6 of 6; survivor count [10]: 0 of 5; survivor count [11]: 0 of 5

— PubChem BioAssay AID330 (DTP/NCI, 2004)
